Out of some 320,000 compounds screened, about 2,100 (0.66%) were called active. The shares of active, inactive and inconclusive entries below differ from those in the screen. The call rests on the fitted dose curve; in most records, active means well fitted inhibition curve with a large enough effect in the signal ratio, with a control signal flat (not every such curve was filed as active); inconclusive means small, poorly fitted or top-dose-only effect, or effect the other way, or a change in a side signal; inactive means flat fitted curve, though single readings scatter; the % refers to the signal ratio. A potency beside an inconclusive call is a rough fit, not a confirmed value.
Test: qHTS Assay for Lipid Storage Modulators in Drosophila S3 Cells
Conditions: BODIPY lipid droplet fluorescence, 18-24 h, cells fed with added oleic acid; lipid storage change, negative = inhibition: at 46.1 µM (top of the series) unless noted
In short: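 Laser-scanning cytometry quantifies lipid droplet accumulation (500–530 nm total intensity; droplet/cell object ratio) in oleic acid-fed (400 uM added) Drosophila S3 cells treated with a concentration series. 20 uM Triacsin C defined 100% inhibition.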
On the % scale 0 is the no-effect control and ±100 the full control effect; potency means the concentration at half of the fitted maximal effect.

SMILES | lipid storage change, negative = inhibition | Potency
C=CCN1C(=O)/C(=C/C=C2/N(CC)c3ccc(S(=O)(=O)N(C)C)cc3N2CC)SC1=S | inconclusive: -100% | –
Cc1c(SCCO)c(=O)[nH]c2cc3c(cc12)OCO3 | – | inconclusive: 0.0517 µM [activator, full curve, poor fit]
CCN(CC)S(=O)(=O)c1cccc(NC(=O)CN2C(=O)NC3(CCOc4ccccc43)C2=O)c1 (centres undefined) | – | inconclusive: 23.1 µM [falling, partial curve, poor fit]
COCCNS(=O)(=O)c1ccc(F)c(OC)c1 | – | active: 20.6 µM
OC(CNC1CCCC1)COc1ccc(Cl)cc1 (centres undefined) | – | inconclusive: 6.51 µM [falling, single point]
Cc1ccc(S(=O)(=O)N2CCOCC2)cc1NC(=O)CNCC1CCCCC1 | inconclusive: 2.69% | –
COCCN(C(=O)COC(=O)CCOc1cccc(C)c1)c1c(N)n(Cc2ccccc2)c(=O)[nH]c1=O | inconclusive | –
COCCn1c(SCc2ccc(C(=O)OC)o2)nc2cc(Cl)ccc2c1=O | inconclusive: 21.3% | –
CCCCCCCNC(=O)CC(NS(=O)(=O)c1ccc(NC(C)=O)cc1)C(C)C (centres undefined) | inconclusive: -2.1% | –
COc1ccc(S(=O)(=O)N2CCC(C(=O)NCCC(=O)Nc3cccc(OC)c3)CC2)cc1 | – | inconclusive: 5.17 µM [activator, partial curve, poor fit]
COc1ccc(CNC(=O)c2ccc(CS(=O)(=O)c3ccc(Br)cc3)o2)cc1 | inconclusive: -5.39% | –
CC(C)N1C(=O)/C(=C/c2nc3ccccc3c(=O)n2-c2ccccc2)c2ccccc21 | inconclusive: -94.3% | –
Cc1ccc(C(=O)OC(C)CN2CCN(C)CC2)cc1 (centres undefined) | – | inconclusive: 1.3 µM [falling, full curve, poor fit]
CC(C)NC(=O)C(Sc1ccccc1)c1ccccc1 (centres undefined) | inconclusive: -163% | –
Cc1ccccc1-n1c(C)nnc1SCC(=O)N1CCc2ccccc2C1 | inconclusive: 1.65% | –
CC1(C)Cc2c(cnn2-c2ccc(F)cc2)C(NC(=O)C(C)(C)O)C1 (centres undefined) | inconclusive: 34% | –
Cc1nn(C)c(=O)n1-c1ccc(Oc2ccccc2)cc1 | – | inconclusive: 10.3 µM [activator, partial curve, poor fit]
CCOCc1nnc(NC(=O)c2cc(OC)c(OC)cc2[N+](=O)[O-])s1 | inconclusive: -67.2% [cytotoxic] [at 0.00295 µM] | –
CCc1nc(Nc2ccc(OC)c(OC)c2)c2nnn(Cc3ccccc3Cl)c2n1 | – | inconclusive: 16.4 µM [falling, single point]
CCCc1cc(=O)oc2cc(C)cc(OCC(=O)NC(Cc3c[nH]c4ccc(O)cc34)C(=O)O)c12 (centres undefined) | inconclusive: 43% | –
CN(C)S(=O)(=O)N1CCN(C(=O)c2ccc3c(c2)OCO3)CC1 | – | inconclusive: 18.4 µM [activator, partial curve]
O=c1c2ccccc2[nH]c2ccccc12 | inconclusive: -35.1% | –
COc1ccccc1/C=N/OC(=O)c1ccc(F)cc1 | inactive | –
COC(=O)c1[nH]c2ccc(C)cc2c1NC(=O)C1=COCCO1 | inconclusive: 103% | –
O=C(CSc1nnc2ccc(-c3cccnc3)nn12)Nc1ccccc1 | inconclusive: 12.2% | –
CC(C)CCN(Cc1ccco1)S(=O)(=O)c1ccc(-c2ccc(=O)[nH]n2)s1 | inconclusive: 29% | –
O=C(Nc1ccc(Br)cc1)c1cc(S(=O)(=O)Nc2ccccn2)ccc1Cl | – | inconclusive: 0.651 µM [activator, full curve]

Two successive compounds out of the list so far, quoted:
SMILES | lipid storage change, negative = inhibition | Potency
COc1ccc(S(=O)(=O)N2CCC(C(=O)NCCC(=O)Nc3cccc(OC)c3)CC2)cc1 | – | inconclusive: 5.17 µM [activator, partial curve, poor fit]
COc1ccc(CNC(=O)c2ccc(CS(=O)(=O)c3ccc(Br)cc3)o2)cc1 | inconclusive: -5.39% | –

Further results.

SMILES | lipid storage change, negative = inhibition | Potency
COc1cccc(OC)c1OC(=O)/C=C/c1ccc(C)o1 | inconclusive: 9.24% | –
CCN(CC(=O)NC1CCS(=O)(=O)C1)c1ccc([N+](=O)[O-])cc1C#N (centres undefined) | inconclusive: 0.465% | –
COc1ccc(OC)c(N(/C(N)=N/c2nc(C)cc(C)n2)S(=O)(=O)c2ccc(NC(C)=O)cc2)c1 | inconclusive: 42.8% | –
COc1ccccc1OCCn1cc(C(=O)C(C)C)c2ccccc21 | inconclusive: -28.5% | –
COC(=O)c1ccc(CSc2cc(C)c3cccc(C)c3n2)o1 | inconclusive: 14.2% | –
O=C(NC1CCCC1)C1c2ccccc2C(=O)N1C1CCCCC1 (centres undefined) | inconclusive: -6.27% | –
CCCN1CCN(CCCNC(=O)Cn2cc3c(n2)CCCC3)CC1 | inconclusive: -2.78% | –
CCNC(=O)COC(=O)c1cccc(Br)c1 | inconclusive: 16.6% | –
CSc1ccc(C2C(C#N)=C(N)Oc3c2ccc(=O)c2c(C)oc(C)c32)cc1 (centres undefined) | inconclusive: 1.05% | –
O=C(Cn1ncc2c3ccccc3n(Cc3cccc(Cl)c3)c2c1=O)NCC1CCCO1 (centres undefined) | – | inconclusive: 6.51 µM [activator, single point]
Cn1c(=S)ccc2ccccc21 | inconclusive: -13.8% | –
CCCc1cc(C(=O)NCC(C)C)no1 | inconclusive: -12.2% [at 9.22 µM] | –
CCOC(=O)N1CCN(C2CCCN(C(=O)c3ccccc3C(F)(F)F)C2)CC1 (centres undefined) | inconclusive: 112% | –
Cc1cc(C)nc(SCc2nnc(SCC(=O)N3CCOCC3)o2)n1 | – | inconclusive: 23.1 µM [activator, single point]
Cc1ccc(Cl)cc1N1CCN(S(=O)(=O)c2cnc[nH]2)CC1 | inconclusive: 0.239% | –
COc1ccccc1C(=O)N/N=C(\C)CC(=O)Nc1ccccc1NC(C)=O | inconclusive: 9.3% | –
O=c1c2ccccc2ncn1-c1ccccc1F | – | inconclusive: 29.1 µM [activator, single point]
C=CCc1cc(C=O)cc(OCC)c1OCc1ccc(Cl)cc1 | inconclusive: 6.51% | –
O=C(COc1ccc(S(=O)(=O)N2CCCCC2)cc1Cl)N1CCCC1 | – | inconclusive: 6.51 µM [activator, single point]
CC(C)CC(=O)NC(Nc1ccccc1F)C(Cl)(Cl)Cl (centres undefined) | – | inconclusive: 25.9 µM [falling, single point]
CN(C)CCC1c2ccc(Cl)cc2CCc2cccnc21 (centres undefined) (tested in a mixture with another compound) | – | inconclusive: 5.8 µM [activator, single point]
CCCCn1c(N)c(N(CC)C(=O)c2cc(CC)c(C)s2)c(=O)[nH]c1=O | inconclusive | –
COc1cccc(C(=O)OC2CCCN(C)C2)c1 (centres undefined) | – | active: 23.1 µM
CCCn1ncc2c(Nc3ccc(C)c(C)c3)ncnc21 | inconclusive: -3.6% | –
CCn1c(C(C)NC(=O)Cc2ccccc2)nc2ccccc21 (centres undefined) | inconclusive: 8.32% | –
Cc1ccc(NC(=O)CCC(=O)c2cccs2)c(O)c1 | inconclusive: 4.3% | –
O=C(Cc1ccc(Cl)c(Cl)c1)Nc1cccnc1 | inconclusive: 23.1% | –

Part of the list above in another layout.
SMILES	lipid storage change, negative = inhibition	Potency
COc1ccccc1OCCn1cc(C(=O)C(C)C)c2ccccc21	inconclusive: -28.5%	–
COC(=O)c1ccc(CSc2cc(C)c3cccc(C)c3n2)o1	inconclusive: 14.2%	–
O=C(NC1CCCC1)C1c2ccccc2C(=O)N1C1CCCCC1 (centres undefined)	inconclusive: -6.27%	–
CCCN1CCN(CCCNC(=O)Cn2cc3c(n2)CCCC3)CC1	inconclusive: -2.78%	–
CCNC(=O)COC(=O)c1cccc(Br)c1	inconclusive: 16.6%	–

The list goes on.

SMILES | lipid storage change, negative = inhibition | Potency
CC(CC(=O)N(C)C1CCCCC1)S(=O)(=O)c1ccc2c(c1)NC(=O)CO2 (centres undefined) | inconclusive: 45.2% | –
COC(=O)c1ccc2[nH]c([C@H](C)O)c([C@H](C)O)c2c1 | inconclusive: -3.51% | –
CSc1ccc(CCNC(=O)CCc2nnc3ccc(N4CCC5(CC4)OCCO5)nn23)cc1 | inconclusive: -36.2% | –
COc1ccc(C(=O)NC(=S)Nc2ccc(N3CCOCC3)c(Cl)c2)cc1[N+](=O)[O-] | – | inconclusive: 0.103 µM [falling, partial curve, poor fit]
Cc1ccccc1C(=O)Nc1cccc(-c2cn3ccccc3n2)c1 | inconclusive: 0.033% | –
c1cncc(-c2nc(N3CCCCCC3)c3ccccc3n2)c1 | – | inconclusive: 0.461 µM [activator, full curve, poor fit]
CC(C)(C)OC(=O)N1Cc2cc3ccccc3nc2C1CO (centres undefined) | inconclusive: -21.6% | –
CCc1ccc(NC(=O)N(CCOC)C2CCN(C(C)=O)CC2)cc1 | – | inconclusive: 32.6 µM [falling, single point]
COC(=O)c1scc(C#N)c1N/N=C(\C#N)S(=O)(=O)c1ccc(Cl)cc1 | inconclusive: -11.4% | –
O=C(CCc1c[nH]c2ccccc12)NCCc1ccccc1 | inconclusive: -120% | –
CCSc1nnc(NC(=O)c2cccnc2)s1 | inconclusive: 1.94% | –
O=C(Nc1ccc2oc(-c3cccnc3)nc2c1)c1cc2ccccc2o1 | inconclusive: 19.1% | –
NC(=O)/C=C\c1cn(-c2ccccc2)nc1-c1ccc2c(c1)OCCO2 | inactive | –
CC(C)C(NC(=O)c1c(F)cccc1F)C(=O)NCc1ccc(S(=O)(=O)N2CCOCC2)cc1 (centres undefined) | inconclusive: 47.1% | –
COc1cccc(OC)c1OCCN1CCN(C(=O)c2ccco2)CC1 | inconclusive: -6% | –
O=C(Nc1ccc(S(=O)(=O)NCc2ccccc2)cc1)C1CCCCC1 | – | inconclusive: 20.6 µM [falling, single point]
NC(=O)c1ccsc1NC(=O)COC(=O)CNC(=O)c1cccc([N+](=O)[O-])c1 | – | inconclusive: 8.2 µM [falling, partial curve, poor fit]
COc1ccc(NC(C)=O)cc1S(=O)(=O)N(C)Cc1c(C)nn(-c2ccccc2)c1C | inconclusive: -77.5% | –
C=C(C)COc1ccc2oc(C)c(C(=O)OCCOC)c2c1 | inconclusive: 20.3% | –
COc1ccc(C)cc1NC(=O)c1nnn(CCc2ccccc2)c1N | inconclusive: -14.5% | –
Cc1ccc(C)c(NC(=O)CCc2ccc(C)o2)c1 | inconclusive: -37.5% | –
CC(=O)c1cccc(NC(=S)NCCc2ccc(Cl)cc2)c1 | inconclusive: -9.32% | –
Cc1cc(SCC(=O)Nc2ncc(Cl)cc2Cl)nc2ccccc12 | inactive | –
CCC(NC(=O)OCc1ccccc1)C(=O)Oc1ccc2ccc(=O)oc2c1 (centres undefined) | inconclusive: 9.92% | –
Cc1ccc(NC(=O)c2sc(N)nc2-c2ccc([N+](=O)[O-])cc2)cc1C | inconclusive: -16% | –

Reference: PubChem BioAssay AID2685 (National Center for Advancing Translational Sciences (NCATS), 2010)
